Laboratory results taken from publication PMC5415634.

How the values were obtained:
Experiment in all cases: co-IP; Aag2 cell lines stably expressing a V5-tagged protein transfected with a myc-tagged protein expression construct; lysates 48 h p.t. (150 mM NaCl, 5 mM MgCl2, 20 mM HEPES pH 7.4, 0.5% Triton X-100); IP with mouse anti-myc and protein G magnetic beads at 4°C; Western blot for V5 and myc tags
[1] = target: T1, myc-tagged Ago2 (A. aegypti) (UniProt C5J0H4)
T1 sequence: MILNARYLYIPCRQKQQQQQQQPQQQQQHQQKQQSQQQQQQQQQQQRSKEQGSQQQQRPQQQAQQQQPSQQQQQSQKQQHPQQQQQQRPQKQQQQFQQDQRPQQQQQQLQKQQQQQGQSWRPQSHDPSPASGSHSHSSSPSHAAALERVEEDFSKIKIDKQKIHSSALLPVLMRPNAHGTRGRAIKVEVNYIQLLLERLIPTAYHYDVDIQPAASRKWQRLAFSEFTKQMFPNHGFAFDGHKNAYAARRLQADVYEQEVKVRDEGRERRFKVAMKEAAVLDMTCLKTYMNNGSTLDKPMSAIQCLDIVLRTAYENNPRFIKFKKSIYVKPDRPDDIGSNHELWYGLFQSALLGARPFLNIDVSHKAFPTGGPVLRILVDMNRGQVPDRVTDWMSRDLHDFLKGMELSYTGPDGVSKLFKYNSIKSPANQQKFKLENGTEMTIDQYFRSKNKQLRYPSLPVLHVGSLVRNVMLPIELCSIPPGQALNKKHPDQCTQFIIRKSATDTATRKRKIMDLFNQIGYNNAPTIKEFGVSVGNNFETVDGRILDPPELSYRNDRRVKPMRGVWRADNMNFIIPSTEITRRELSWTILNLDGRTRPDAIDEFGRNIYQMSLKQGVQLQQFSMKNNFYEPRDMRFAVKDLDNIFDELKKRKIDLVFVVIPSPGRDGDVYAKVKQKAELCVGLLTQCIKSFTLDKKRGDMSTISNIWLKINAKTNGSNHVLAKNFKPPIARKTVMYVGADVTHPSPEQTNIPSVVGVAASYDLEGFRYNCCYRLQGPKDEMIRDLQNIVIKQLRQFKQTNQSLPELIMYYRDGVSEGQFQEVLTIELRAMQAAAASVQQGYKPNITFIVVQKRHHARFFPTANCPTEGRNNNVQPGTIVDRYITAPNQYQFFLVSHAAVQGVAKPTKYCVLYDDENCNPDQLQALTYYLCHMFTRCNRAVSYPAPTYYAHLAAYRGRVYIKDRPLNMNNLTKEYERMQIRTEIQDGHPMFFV

[2] = target: myc-tagged Piwi4 (A. aegypti)
[3] = target: myc-tagged Dcr2 (A. aegypti)

- binding [1]: binds
Molecule: V5-tagged Piwi4 (A. aegypti)

- binding [1]: binds
Molecule: V5-tagged Dcr2 (A. aegypti)

- binding [2]: binds
- binding [3]: binds
B1: V5-tagged Ago2 (protein, UniProt C5J0H4 1-992)
chain: T1 sequence

Results are given in words; binding and its absence hold for the method and conditions named. In cells and extracts the contact can be indirect. A result given as binding can be weak or reduced; the word gives no strength. Where a sequence is shown, tags or fusion partners need not be part of it. One block for each molecule: values may come before it.
